Results on six molecules are retold here after PMC10716047.

The chains are these.
B1: HA-tagged SMC1A truncation mutant S3 (amino acids 508–747) (domain or fragment, UniProt Q14683 508-747)
chain: KRLYPGSVYGRLIDLCQPTQKKYQIAVTKVLGKNMDAIIVDSEKTGRDCIQYIKEQRGEPETFLPLDYLEVKPTDEKLRELKGAKLVIDVIRYEPPHIKKALQYACGNALVCDNVEDARRIAFGGHQRHKTVALDGTLFQKSGVISGGASDLKAKARRWDEKAVDKLKEKKERLTEELKEQMKAKRKEAELRQVQSQAHGLQMRLKYSQSDLEQTKTRHLALNLQEKSKLESELANFGPR
B2: HA-tagged SMC1A truncation mutant S4 (amino acids 748–1,013) (domain or fragment, UniProt Q14683 748-1013)
chain: INDIKRIIQSREREMKDLKEKMNQVEDEVFEEFCREIGVRNIREFEEEKVKRQNEIAKKRLEFENQKTRLGIQLDFEKNQLKEDQDKVHMWEQTVKKDENEIEKLKKEEQRHMKIIDETMAQLQDLKNQHLAKKSEVNDKNHEMEEIRKKLGGANKEMTHLQKEVTAIETKLEQKRSDRHNLLQACKMQDIKLPLSKGTMDDISQEEGSSQGEDSVSGSQRISSIYAREALIEIDYGDLCEDLKDAQAEEEIKQEMNTLQQKLNEQ
B3: HA-tagged SMC1A truncation mutant S5 (amino acids 1,013–1,233) (domain or fragment, UniProt Q14683 1013-1233)
chain: QQSVLQRIAAPNMKAMEKLESVRDKFQETSDEFEAARKRAKKAKQAFEQIKKERFDRFNACFESVATNIDEIYKALSRNSSAQAFLGPENPEEPYLDGINYNCVAPGKRFRPMDNLSGGEKTVAALALLFAIHSYKPAPFFVLDEIDAALDNTNIGKVANYIKEQSTCNFQAIVISLKEEFYTKAESLIGVYPEQGDCVISKVLTFDLTKYPDANPNPNEQ
B4: HA-tagged SMC1A truncation mutant S2 (amino acids 241–507) (domain or fragment, UniProt Q14683 241-507)
chain: ELASKNKEIEKDKKRMDKVEDELKEKKKELGKMMREQQQIEKEIKEKDSELNQKRPQYIKAKENTSHKIKKLEAAKKSLQNAQKHYKKRKGDMDELEKEMLSVEKARQEFEERMEEESQSQGRDLTLEENQVKKYHRLKEEASKRAATLAQELEKFNRDQKADQDRLDLEERKKVETEAKIKQKLREIEENQKRIEKLEEYITTSKQSLEEQKKLEGELTEEVEMAKRRIDEINKELNQVMEQLGDARIDRQESSRQQRKAEIMESI
B5: HA-tagged SMC1A truncation mutant S1 (amino acids 1–240) (domain or fragment, UniProt Q14683 1-240)
chain: MGFLKLIEIENFKSYKGRQIIGPFQRFTAIIGPNGSGKSNLMDAISFVLGEKTSNLRVKTLRDLIHGAPVGKPAANRAFVSMVYSEEGAEDRTFARVIVGGSSEYKINNKVVQLHEYSEELEKLGILIKARNFLVFQGAVESIAMKNPKERTALFEEISRSGELAQEYDKRKKEMVKAEEDTQFNYHRKKNIAAERKEAKQEKEEADRYQRLKDEVVRAQVQLQLFKLYHNEVEIEKLNK

No constants are given. Whether binding was seen depends on the method and setting. In cells and extracts the contact can be indirect. Binding can be weak; no strength is given. For part of these data: Sequences can lack the tags named with a protein.

The target in one assay is FLAG-tagged wild-type SMIMP (human). Briefly: co-IP; HEK293FT cells cotransfected with HA-tagged SMC1A (wild type or truncation) and FLAG-tagged SMIMP (wild type or deletion mutant), lysates immunoprecipitated with anti-FLAG antibody, immunoblot. On the technique in general: Immunoblotting shows a protein as a band on a membrane.
In the case of B1, the binding entry was “no binding”. Still for that read-out and setting: the value for B2 was “no binding”. Same read-out and setting: the result for B3 reads “binds”. The same measure, in the same setting: the value for B4 was “no binding”. As to B5, the binding result is “binds”.

The target of another assay is T1, SMC1A (structural maintenance of chromosomes protein 1A) (human (endogenous in HCT-116 and DLD-1)) (UniProt Q14683).
T1 sequence: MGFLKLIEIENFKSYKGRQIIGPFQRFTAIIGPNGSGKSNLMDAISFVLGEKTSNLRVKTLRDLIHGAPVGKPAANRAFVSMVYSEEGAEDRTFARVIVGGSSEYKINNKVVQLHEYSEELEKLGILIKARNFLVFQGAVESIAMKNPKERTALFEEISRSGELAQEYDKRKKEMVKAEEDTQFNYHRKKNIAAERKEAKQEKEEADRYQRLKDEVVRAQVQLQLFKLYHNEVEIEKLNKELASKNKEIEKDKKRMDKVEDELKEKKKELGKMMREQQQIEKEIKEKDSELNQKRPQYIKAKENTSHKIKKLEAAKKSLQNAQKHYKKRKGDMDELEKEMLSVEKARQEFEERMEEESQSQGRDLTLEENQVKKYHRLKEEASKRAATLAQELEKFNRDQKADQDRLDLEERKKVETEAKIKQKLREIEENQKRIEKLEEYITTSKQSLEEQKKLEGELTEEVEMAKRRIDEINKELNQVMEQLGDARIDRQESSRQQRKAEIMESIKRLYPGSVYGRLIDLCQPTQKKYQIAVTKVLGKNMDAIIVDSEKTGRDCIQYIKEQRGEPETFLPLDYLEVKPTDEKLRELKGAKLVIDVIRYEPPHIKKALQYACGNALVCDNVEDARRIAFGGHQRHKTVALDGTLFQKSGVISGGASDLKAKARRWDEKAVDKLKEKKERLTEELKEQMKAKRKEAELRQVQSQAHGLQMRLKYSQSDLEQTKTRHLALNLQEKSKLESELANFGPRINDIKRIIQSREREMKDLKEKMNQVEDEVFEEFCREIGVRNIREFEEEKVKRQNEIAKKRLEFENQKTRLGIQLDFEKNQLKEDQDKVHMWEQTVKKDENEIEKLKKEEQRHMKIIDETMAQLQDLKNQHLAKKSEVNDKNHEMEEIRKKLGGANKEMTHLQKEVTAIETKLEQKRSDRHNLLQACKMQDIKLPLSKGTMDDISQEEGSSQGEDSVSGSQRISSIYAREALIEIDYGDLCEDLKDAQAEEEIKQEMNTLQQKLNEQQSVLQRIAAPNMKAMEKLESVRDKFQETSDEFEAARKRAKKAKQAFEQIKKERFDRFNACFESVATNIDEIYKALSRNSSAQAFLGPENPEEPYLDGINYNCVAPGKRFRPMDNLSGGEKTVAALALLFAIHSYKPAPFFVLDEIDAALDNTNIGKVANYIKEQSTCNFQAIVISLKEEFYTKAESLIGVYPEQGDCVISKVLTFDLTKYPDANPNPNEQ
Description: co-IP; whole-cell lysates of HCT-116 and DLD-1 cells stably expressing SMIMP–FLAG, immunoprecipitated with anti-SMC1A antibody (mouse IgG as control), blot with anti-FLAG.
In the case of “FLAG-tagged SMIMP (SMC1A-interacting microprotein, encoded by the lncRNA ELFN1-AS1) (human)”, the binding entry is listed as “binds”.
